## Library screen at single concentrations

Chains of the proteins cited; added tags and fusions are not shown. Residues count along the entry.
UniProt A4I591, 1-473: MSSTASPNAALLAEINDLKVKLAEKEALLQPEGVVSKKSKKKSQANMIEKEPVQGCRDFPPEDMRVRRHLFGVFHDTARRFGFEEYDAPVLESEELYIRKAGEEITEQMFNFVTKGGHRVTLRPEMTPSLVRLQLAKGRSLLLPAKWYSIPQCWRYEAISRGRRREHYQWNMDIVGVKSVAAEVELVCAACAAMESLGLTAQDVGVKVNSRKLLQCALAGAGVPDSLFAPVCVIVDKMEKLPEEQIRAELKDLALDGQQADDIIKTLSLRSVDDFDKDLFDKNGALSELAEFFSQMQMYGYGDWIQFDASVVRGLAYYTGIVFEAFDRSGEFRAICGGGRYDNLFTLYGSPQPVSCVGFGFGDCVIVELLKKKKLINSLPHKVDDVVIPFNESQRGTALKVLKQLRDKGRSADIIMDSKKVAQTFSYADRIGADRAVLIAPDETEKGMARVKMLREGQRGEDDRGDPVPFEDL
UniProt Q4DA54, 1-478: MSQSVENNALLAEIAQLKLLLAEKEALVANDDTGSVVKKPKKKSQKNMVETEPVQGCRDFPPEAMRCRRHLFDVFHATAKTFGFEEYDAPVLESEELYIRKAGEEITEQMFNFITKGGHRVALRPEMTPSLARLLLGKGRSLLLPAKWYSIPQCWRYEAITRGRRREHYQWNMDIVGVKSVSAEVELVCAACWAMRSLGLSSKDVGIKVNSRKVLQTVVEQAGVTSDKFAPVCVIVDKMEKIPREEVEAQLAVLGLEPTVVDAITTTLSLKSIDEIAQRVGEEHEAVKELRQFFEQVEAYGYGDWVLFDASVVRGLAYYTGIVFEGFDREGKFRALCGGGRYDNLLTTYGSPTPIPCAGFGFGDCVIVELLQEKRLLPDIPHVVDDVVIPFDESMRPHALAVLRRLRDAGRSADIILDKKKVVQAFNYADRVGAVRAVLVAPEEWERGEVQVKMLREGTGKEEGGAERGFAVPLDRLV
UniProt Q8IDJ8, 1-583: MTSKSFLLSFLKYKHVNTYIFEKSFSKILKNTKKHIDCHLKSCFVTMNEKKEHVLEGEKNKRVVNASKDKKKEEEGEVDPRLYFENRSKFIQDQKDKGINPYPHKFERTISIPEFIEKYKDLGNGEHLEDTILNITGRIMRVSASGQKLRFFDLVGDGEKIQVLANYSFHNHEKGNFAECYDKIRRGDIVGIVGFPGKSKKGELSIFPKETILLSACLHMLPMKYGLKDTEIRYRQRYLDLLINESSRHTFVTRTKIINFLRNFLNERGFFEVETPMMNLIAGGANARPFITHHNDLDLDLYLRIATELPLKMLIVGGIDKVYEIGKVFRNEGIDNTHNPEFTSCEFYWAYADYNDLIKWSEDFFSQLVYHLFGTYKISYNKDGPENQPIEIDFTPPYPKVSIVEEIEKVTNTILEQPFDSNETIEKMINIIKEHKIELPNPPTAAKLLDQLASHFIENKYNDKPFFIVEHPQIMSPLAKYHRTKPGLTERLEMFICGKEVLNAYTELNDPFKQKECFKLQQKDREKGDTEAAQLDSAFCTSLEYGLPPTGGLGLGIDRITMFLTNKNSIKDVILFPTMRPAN

A: 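Histidine-tRNA ligase, Leishmania infantum (UniProt A4I591). Enzyme assay of histidyl-tRNA synthetase; the read-out is not stated. Tested at 30 µM. The record gives no direction; compounds that gave an IC50 in retests scored well above the rest, so higher reads as stronger inhibition. The assay is labelled LdHisRS but filed under L. infantum. Of about 69,000 compounds tested this way, about 410 (0.6%) reached 50% or more in at least one test.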
B: 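Enzyme assay of histidyl-tRNA synthetase; the read-out is not stated. Target: Histidine-tRNA ligase, Trypanosoma cruzi CL Brener (UniProt Q4DA54). Tested at 30 µM. The record gives no direction; compounds that gave an IC50 in retests scored well above the rest, so higher reads as stronger inhibition. About 69,000 compounds were tested under these conditions; 0.045% (about 31) showed 50% or more at least once.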
C: 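Enzyme assay of the cytosolic lysyl-tRNA synthetase in 384-well plates, read by luminescence. Target: Lysine-tRNA ligase, Plasmodium falciparum 3D7 (UniProt Q8IDJ8). Tested at 30 µM. Higher reads as stronger inhibition, judged from the few compounds that gave an IC50. Of about 69,000 compounds tested this way, about 49 (0.071%) reached 50% or more in at least one test.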
D: 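Cell assay of Leishmania donovani living inside macrophages; the read-out is not stated. Compounds at 30 µM. The record gives no direction; compounds that gave an IC50 in retests scored well above the rest, so higher reads as stronger inhibition. Size under these conditions: about 69,000 compounds, about 1,000 of them at 50% or above in at least one test.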

The filed quantity is “Percent Effect” (%). The record does not define 0% and 100%; most values in the screen are far below 50% and negative numbers occur (in some assays of this library far below -100). This is an unselected part of the compounds tested. Two or more numbers in one place are separate tests of the same structure; such repeats can differ widely.

- Cc1ccc(C(=O)NCCNCC2CNc3ccnn3C2)cc1F (stereo unspecified) | A: -12.33%; B: 8.867%; C: -0.985%; D: 15%
- O=C(O)C(F)(F)F.[H][C@@]12CN(c3ncc(C)cn3)C[C@@]1([H])N(CC(C)C)C(=O)CO2 | D: -13.22%
- CN1CCCC(N(C)C(=O)c2ccc(NC(=O)c3cc[nH]n3)cc2)C1 (stereo unspecified) | A: 12%; B: 7.229%; C: 2.4%; D: 22.16%
- O=C(O)C(F)(F)F.[H][C@@]12COC[C@@H](CC(=O)N3CCCC3)[C@]1([H])CN(C(=O)c1ccccn1)C2 | D: 6.714%
- CN(Cc1ccc2c(c1)OCO2)C(=O)c1ccc(C2CCCNC2)cc1 (stereo unspecified) | A: 14.75%; B: 5.6%; C: 6.067%; D: 4.185%
- CN(C)C(=O)N[C@@H]1CN(C2CCOCC2)[C@@H]2CCCO[C@@H]21 | A: 8.772%; B: 2.151%; C: 4.544%
- O=C(O)C(F)(F)F.O=C(O)C(F)(F)F.[H][C@@]12COC[C@]1(COCc1ccccn1)CN(Cc1cccc(OC)c1)C2 | D: -0.3642%
- N#Cc1ccccc1CN1CCC(c2nccn2CC(N)=O)CC1 | A: 15.08%; B: 7.059%; C: 4.18%; D: 4.124%
- c1cncc(O[C@H]2COCCN(CC3CC3)C2)c1 | A: 12.16%; B: 2.174%; C: 1.362%; D: -83.88%
- COc1nccnc1N1CCC2(CC1)[C@H](O)C[C@@H]2OCCN(C)C | A: 13.22%; B: 2.521%; C: 24.68%; D: 13.35%
- O=C(Cc1ccccn1)N1CCC(c2noc(-c3ccncc3)n2)CC1 | A: 7.368%; B: 6.716%; C: 1.267%; D: 4.394% and 7.856%
- CN(CCC(O)c1ccccc1)c1cc(C2CC2)ncn1 (stereo unspecified) | A: -8.772%; B: 1.093%; C: 4.622%; D: 25.75%
- O=C(O)C(F)(F)F.O=C(O)C(F)(F)F.O=C(O)C(F)(F)F.[H][C@@]12CN(Cc3ccncc3)C[C@]1([H])OCCN2c1ccc(C)nn1 | D: 16.14%
- COC(=O)c1ccccc1NS(=O)(=O)c1c(C)nn(C)c1C | A: 14.29%; B: 3.093%; C: -1.224%; D: 28.34%
- CS(=O)(=O)N1Cc2nccn2CC(CNC(=O)c2cccnc2)C1 (stereo unspecified) | A: 13.68%; B: -1.227%; C: 1.835%
- CCN1CCOCC12CCN(C(=O)Cc1ccccc1)CC2 | A: 13.76%; B: -17.65%; C: 4.304%
- CCN(C)S(=O)(=O)N1CCCC(CO)(CC=C(C)C)C1 (stereo unspecified) | A: 0%; B: 2.646%; C: 2.897%; D: 15.59%
- COc1ccc2c(c1)OCC(Cc1ccc(N)nc1C)C2 (stereo unspecified) | A: 23.66%; B: -1.554%; C: 11.58%; D: -3.301%
- CCc1nc(C2CCCN2C(=O)c2nccnc2N)no1 (stereo unspecified) | A: -4.255%; B: -1.527%; C: -0.633%; D: 17.05%
- CCC(CO)N(Cc1ccccn1)C(=O)c1cccc(C#N)c1 (stereo unspecified) | A: 17.71%; B: 3.352%; C: 7.808%; D: 6.72%
- O=S(=O)(CCN1CCCC1Cn1cncn1)c1ccccc1 (stereo unspecified) | A: 6.838%; B: 4.843%; C: -0.9781%; D: 42.78%
- Cc1cccc(OCCC(=O)NCC(C)(C)C(N)=O)c1 | A: 26.4%; B: 4.183%; C: 3.48%; D: 3.617%
- CN(C1CCN(c2ccccn2)CC1)S(=O)(=O)c1ccc(F)cc1 | A: 21.93%; B: 3.448%; C: 3.765%; D: 3.793%
- Cc1ccc(S(=O)(=O)N2CCN(CCC(N)=O)CC2)s1 | A: 22.34%; B: 16.16%; C: 1.666%; D: 13.04%
- O=C(NCc1ccnc(OCC(F)(F)F)c1)NCC1COCCO1 (stereo unspecified) | A: 8.333%; B: 5.208%; C: 1.421%; D: 5.342%
- O=C(O)C(F)(F)F.O=C(c1cscn1)N1CCC2(CN(Cc3ccsc3)C2)C1 | D: 9.64%

Repeated from the top, 3 entries:

{"smiles": "Cc1ccc(C(=O)NCCNCC2CNc3ccnn3C2)cc1F", "stereo": "stereo unspecified", "A": -12.33, "B": 8.867, "C": -0.985, "D": 15}
{"smiles": "O=C(O)C(F)(F)F.[H][C@@]12CN(c3ncc(C)cn3)C[C@@]1([H])N(CC(C)C)C(=O)CO2", "D": -13.22}
{"smiles": "CN1CCCC(N(C)C(=O)c2ccc(NC(=O)c3cc[nH]n3)cc2)C1", "stereo": "stereo unspecified", "A": 12, "B": 7.229, "C": 2.4, "D": 22.16}

Measurements from “University of Dundee, Small-Polar-MMV Screening Library” (2021), ChEMBL document CHEMBL3988442.